Test results as given in article PMC12700540.
These are yes or no findings as the source states them, for the method shown. Binding seen in cells or lysates may run through a third protein. Some entries that bind do so weakly or less than the wild type. Each block holds one molecule with its values, some of them ahead of it.

The chains behind the UniProt entries cited, without tags or fusion partners.
UniProt P70168: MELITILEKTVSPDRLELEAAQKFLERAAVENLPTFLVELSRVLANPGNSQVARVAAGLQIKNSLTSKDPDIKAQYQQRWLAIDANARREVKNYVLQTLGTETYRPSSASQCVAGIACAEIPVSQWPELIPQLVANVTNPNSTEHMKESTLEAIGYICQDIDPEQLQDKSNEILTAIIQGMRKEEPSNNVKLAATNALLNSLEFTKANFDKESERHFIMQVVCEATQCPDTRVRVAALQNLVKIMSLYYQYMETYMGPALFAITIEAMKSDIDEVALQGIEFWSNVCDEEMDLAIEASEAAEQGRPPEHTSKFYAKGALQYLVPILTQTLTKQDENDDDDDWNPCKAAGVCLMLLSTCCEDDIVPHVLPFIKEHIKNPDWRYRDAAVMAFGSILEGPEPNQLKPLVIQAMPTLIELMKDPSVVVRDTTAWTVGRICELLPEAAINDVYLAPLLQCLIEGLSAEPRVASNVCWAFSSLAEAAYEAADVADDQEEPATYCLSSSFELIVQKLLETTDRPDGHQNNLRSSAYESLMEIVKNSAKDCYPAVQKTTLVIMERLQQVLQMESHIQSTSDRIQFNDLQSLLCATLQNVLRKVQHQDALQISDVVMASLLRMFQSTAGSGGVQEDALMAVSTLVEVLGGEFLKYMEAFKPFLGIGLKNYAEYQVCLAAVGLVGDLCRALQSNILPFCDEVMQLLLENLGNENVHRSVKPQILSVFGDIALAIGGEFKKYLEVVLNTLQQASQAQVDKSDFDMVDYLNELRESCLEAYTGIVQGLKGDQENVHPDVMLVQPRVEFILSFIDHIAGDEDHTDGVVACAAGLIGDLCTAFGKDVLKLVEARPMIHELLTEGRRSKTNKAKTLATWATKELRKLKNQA

Key:
[1] = target: T1, S100a9 lactylated at lysine 26 (S100a9K26la) (mouse (endogenous in neutrophils)) (UniProt P31725); assay: co-IP; co-IP analysis of S100a9K26la and importin β1 in neutrophils
T1 sequence (chain, lactyl-lysine at 26 (K26la)): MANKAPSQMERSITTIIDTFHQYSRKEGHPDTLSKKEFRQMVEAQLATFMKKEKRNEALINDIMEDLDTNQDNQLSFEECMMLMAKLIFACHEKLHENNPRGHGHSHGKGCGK

[2] = target: T2, dihydrolipoyllysine-residue acetyltransferase (DLAT) (mouse (endogenous in BM neutrophils)) (UniProt Q8BMF4); assay: co-IP; reciprocal IP with anti-S100a9K26la or anti-DLAT antibody from BM neutrophils following MI/R; also BM neutrophils treated with doses of ALA, IP with anti-DLAT (ALA inhibited the binding)
T2 sequence: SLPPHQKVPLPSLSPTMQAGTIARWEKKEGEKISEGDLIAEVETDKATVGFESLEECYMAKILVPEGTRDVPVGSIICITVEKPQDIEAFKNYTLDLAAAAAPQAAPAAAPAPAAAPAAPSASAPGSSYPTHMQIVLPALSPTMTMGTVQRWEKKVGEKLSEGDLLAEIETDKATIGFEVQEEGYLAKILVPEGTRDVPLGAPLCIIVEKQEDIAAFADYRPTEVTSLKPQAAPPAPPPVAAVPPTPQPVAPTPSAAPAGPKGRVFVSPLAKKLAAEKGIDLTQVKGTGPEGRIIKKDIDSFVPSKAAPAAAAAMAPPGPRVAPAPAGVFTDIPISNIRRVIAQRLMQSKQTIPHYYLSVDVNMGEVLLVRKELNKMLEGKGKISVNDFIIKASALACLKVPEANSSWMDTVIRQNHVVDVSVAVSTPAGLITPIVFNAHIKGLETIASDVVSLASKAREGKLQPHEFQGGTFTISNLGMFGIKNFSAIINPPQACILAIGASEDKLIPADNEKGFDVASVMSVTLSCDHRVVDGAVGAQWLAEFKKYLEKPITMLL

[3] = target: T1, S100a9 lactylated at lysine 26 (S100a9K26la) (mouse (endogenous in neutrophils)); assay: as above

binding [1]: binds
Molecule: importin β1 (from UniProt P70168 1-876)

binding [2]: binds
B1: S100a9 lactylated at lysine 26 (S100a9K26la) (protein, UniProt P31725 1-113)
chain: MANKAPSQMERSITTIIDTFHQYSRKEGHPDTLSKKEFRQMVEAQLATFMKKEKRNEALINDIMEDLDTNQDNQLSFEECMMLMAKLIFACHEKLHENNPRGHGHSHGKGCGK
modifications: lactyl-lysine at 26 (K26la)

binding [3]: binds
B2: dihydrolipoyllysine-residue acetyltransferase (DLAT) (enzyme, UniProt Q8BMF4 86-642)
chain: SLPPHQKVPLPSLSPTMQAGTIARWEKKEGEKISEGDLIAEVETDKATVGFESLEECYMAKILVPEGTRDVPVGSIICITVEKPQDIEAFKNYTLDLAAAAAPQAAPAAAPAPAAAPAAPSASAPGSSYPTHMQIVLPALSPTMTMGTVQRWEKKVGEKLSEGDLLAEIETDKATIGFEVQEEGYLAKILVPEGTRDVPLGAPLCIIVEKQEDIAAFADYRPTEVTSLKPQAAPPAPPPVAAVPPTPQPVAPTPSAAPAGPKGRVFVSPLAKKLAAEKGIDLTQVKGTGPEGRIIKKDIDSFVPSKAAPAAAAAMAPPGPRVAPAPAGVFTDIPISNIRRVIAQRLMQSKQTIPHYYLSVDVNMGEVLLVRKELNKMLEGKGKISVNDFIIKASALACLKVPEANSSWMDTVIRQNHVVDVSVAVSTPAGLITPIVFNAHIKGLETIASDVVSLASKAREGKLQPHEFQGGTFTISNLGMFGIKNFSAIINPPQACILAIGASEDKLIPADNEKGFDVASVMSVTLSCDHRVVDGAVGAQWLAEFKKYLEKPITMLL
